# Reference: patent US20230235074A1 (University of Texas, published 2023)
# These are yes or no findings as the source states them, for the method shown.
# Target: BST2 medium isoform (BST2-H, 158 amino acids) expressed on HEK293 transfectants
# Test: cell-based ELISA on dried cells, hybridoma supernatant, OD 450 nm
binder,measurement,value
"BM7 antibody (antibody, IgG1, V domains shown, Tested as hybridoma supernatant) VH: QVTLKESGPGILKPSQTLSLTCSFSGFSLSTSGVGVGWIRQPSGKGLEWLAHIWWDDDEYYNPSLKSQLTISKDTSRNQVFLKITSVDTSDTATYYCARRYYGDAMDYWGQGTAVTVSS VL: DVVMTQTPVSLPVSLGDQASISCRSTQSLVHSNGHTYLHWYLQKPGQSPKLLIYKVSNRFSGVPDRFSGTGSGTDFTLKISRVEAEDLGVYFCSQSTHVPYTFGGGTKLEIK",binding,no binding (tested: undiluted supernatant)
"LA1 antibody (antibody, IgG1, V domains shown, Mouse hybridoma antibody, isotype IgG1, kappa; Tested as hybridoma supernatant) VH: EVQLQQSGPELVKPGASVKISCKTSGYTFTEDTMHWVKQSHGKSLEWIGGINPNKGGTSYNQKFKDKATLTVDKSSSTAYMELRSLTSEDSAVYYCATLVDYWGQGTTLTVSS VL: DIVMTQSQKFMSTSVGDRVSVTCKASQNVGTNVAWYQQKPGQSPKALIHSASYRYSGVPDRFTGSGSGTDFTLTISNVQSEDLAEYFCQQYNSYPLTFGAGTKLELK",binding,no binding (tested: undiluted supernatant)
